Test results reported in the supplement of paper PMC12819154, “High-throughput peptide-centric local stability assay extends protein–ligand identification to membrane proteins, tissues and bacteria” (Nature Structural & Molecular Biology, 2025).
This is one part of the list. Most values lie at the level of the controls, where differences are scatter.

Amino acid sequences for entries named in this document (tags omitted). A change or cut given only in a name is not applied to a line headed by its entry.
UniProt Q8CCN5: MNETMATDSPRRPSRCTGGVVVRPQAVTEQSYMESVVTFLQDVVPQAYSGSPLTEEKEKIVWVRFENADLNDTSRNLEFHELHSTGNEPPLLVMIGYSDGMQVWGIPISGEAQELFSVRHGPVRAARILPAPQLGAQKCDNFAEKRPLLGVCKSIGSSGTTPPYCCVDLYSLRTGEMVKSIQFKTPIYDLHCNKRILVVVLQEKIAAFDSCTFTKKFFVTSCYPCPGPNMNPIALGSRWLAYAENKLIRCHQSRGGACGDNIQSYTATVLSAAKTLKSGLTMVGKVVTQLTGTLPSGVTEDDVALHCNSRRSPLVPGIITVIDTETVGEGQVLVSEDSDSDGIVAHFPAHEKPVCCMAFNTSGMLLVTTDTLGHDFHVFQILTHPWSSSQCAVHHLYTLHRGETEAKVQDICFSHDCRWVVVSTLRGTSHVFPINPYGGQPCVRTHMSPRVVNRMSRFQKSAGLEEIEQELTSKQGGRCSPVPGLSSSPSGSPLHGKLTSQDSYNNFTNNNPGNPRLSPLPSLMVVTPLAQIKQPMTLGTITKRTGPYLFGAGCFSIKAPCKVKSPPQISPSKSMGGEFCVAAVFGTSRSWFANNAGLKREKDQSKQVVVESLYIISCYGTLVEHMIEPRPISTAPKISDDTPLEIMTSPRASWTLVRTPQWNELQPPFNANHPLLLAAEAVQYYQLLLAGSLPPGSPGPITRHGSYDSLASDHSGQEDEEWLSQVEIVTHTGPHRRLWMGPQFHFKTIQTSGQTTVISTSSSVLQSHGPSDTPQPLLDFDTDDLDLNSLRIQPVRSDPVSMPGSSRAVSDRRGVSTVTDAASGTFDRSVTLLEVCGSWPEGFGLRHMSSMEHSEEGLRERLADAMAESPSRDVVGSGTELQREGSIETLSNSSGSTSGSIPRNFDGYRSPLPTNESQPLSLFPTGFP
UniProt Q8BJ64: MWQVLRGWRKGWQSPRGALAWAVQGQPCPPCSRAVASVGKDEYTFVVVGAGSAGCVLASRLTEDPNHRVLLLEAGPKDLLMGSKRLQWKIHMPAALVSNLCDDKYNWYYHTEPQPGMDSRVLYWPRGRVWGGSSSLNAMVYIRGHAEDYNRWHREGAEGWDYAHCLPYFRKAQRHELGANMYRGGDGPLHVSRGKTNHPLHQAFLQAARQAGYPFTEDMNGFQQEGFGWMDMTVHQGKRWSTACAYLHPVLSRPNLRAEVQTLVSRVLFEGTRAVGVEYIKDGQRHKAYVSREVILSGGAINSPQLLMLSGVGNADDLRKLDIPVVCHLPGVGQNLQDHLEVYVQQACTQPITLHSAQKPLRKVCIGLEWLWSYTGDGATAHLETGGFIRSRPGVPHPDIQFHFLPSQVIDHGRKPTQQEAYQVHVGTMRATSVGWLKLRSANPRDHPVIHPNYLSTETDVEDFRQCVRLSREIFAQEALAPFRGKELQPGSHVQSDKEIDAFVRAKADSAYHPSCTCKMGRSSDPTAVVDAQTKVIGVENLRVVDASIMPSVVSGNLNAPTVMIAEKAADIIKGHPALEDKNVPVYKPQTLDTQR
UniProt Q8BK30: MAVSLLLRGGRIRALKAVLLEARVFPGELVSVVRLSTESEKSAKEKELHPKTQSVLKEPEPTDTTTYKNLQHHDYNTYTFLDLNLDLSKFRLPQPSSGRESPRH
UniProt Q8BYH7: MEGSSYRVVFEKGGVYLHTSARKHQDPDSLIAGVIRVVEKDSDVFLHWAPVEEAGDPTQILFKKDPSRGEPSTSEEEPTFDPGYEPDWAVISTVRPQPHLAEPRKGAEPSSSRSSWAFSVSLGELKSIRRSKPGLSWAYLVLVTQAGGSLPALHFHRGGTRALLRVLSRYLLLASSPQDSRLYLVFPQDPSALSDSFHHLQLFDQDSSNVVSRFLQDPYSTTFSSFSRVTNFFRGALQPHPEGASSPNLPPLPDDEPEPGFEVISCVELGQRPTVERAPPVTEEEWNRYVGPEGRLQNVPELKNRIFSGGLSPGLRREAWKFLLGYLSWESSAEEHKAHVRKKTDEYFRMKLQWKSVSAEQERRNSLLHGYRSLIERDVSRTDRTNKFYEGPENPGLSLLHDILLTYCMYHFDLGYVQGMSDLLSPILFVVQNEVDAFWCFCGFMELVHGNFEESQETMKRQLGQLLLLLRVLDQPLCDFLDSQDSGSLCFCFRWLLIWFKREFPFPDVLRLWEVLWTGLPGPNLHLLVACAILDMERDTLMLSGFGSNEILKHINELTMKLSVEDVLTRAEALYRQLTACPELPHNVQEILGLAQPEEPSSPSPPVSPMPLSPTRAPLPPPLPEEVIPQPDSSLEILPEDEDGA
UniProt Q8BL48: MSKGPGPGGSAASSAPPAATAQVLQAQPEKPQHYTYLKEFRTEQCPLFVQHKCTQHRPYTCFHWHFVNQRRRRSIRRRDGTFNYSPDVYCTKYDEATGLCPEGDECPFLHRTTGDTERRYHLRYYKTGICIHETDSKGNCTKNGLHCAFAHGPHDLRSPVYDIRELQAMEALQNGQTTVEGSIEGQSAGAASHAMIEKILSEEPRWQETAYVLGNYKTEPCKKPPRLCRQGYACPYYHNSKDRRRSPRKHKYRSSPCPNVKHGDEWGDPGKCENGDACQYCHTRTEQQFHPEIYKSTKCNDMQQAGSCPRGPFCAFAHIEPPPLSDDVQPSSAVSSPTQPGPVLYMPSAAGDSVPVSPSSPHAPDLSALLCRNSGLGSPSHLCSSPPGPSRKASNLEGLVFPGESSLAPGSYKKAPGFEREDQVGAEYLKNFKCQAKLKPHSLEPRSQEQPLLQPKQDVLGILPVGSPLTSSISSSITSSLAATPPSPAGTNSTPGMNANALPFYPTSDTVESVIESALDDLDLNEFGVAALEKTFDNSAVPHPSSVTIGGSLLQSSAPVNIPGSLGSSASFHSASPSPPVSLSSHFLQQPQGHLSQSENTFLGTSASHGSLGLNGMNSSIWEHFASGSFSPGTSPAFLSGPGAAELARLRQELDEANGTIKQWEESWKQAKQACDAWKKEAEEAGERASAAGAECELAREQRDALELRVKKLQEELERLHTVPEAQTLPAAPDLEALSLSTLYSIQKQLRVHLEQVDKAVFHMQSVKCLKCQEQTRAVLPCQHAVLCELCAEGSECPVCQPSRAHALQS
UniProt Q8BTE0: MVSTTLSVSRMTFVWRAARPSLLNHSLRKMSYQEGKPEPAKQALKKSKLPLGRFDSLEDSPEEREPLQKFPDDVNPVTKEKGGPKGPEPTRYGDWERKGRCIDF
UniProt Q8BUY5: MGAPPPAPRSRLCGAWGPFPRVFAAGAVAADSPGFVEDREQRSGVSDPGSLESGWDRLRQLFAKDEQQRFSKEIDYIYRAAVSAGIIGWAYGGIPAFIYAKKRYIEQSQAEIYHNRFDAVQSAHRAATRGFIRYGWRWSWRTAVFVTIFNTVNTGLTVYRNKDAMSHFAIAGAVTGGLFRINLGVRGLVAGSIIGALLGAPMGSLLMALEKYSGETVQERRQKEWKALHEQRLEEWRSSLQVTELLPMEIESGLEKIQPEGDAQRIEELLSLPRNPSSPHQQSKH
UniProt Q8BYM8: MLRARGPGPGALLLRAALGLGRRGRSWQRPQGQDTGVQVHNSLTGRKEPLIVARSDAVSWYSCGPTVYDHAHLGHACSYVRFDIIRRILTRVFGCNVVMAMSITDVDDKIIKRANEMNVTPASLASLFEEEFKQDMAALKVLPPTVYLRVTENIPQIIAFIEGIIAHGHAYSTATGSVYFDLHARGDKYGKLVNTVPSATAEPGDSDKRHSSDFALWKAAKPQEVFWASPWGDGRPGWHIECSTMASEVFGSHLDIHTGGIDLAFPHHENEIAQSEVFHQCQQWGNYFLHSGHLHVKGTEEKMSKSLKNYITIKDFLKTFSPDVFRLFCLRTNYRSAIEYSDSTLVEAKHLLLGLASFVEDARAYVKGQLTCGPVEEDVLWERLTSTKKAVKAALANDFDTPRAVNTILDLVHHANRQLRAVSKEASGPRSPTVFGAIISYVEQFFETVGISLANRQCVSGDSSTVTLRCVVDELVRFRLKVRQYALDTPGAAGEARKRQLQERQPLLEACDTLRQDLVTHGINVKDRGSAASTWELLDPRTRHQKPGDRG
UniProt Q8CEI1: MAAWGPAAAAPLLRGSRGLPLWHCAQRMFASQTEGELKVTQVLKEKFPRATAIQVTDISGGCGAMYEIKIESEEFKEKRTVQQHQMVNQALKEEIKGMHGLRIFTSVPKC
UniProt Q8BL97: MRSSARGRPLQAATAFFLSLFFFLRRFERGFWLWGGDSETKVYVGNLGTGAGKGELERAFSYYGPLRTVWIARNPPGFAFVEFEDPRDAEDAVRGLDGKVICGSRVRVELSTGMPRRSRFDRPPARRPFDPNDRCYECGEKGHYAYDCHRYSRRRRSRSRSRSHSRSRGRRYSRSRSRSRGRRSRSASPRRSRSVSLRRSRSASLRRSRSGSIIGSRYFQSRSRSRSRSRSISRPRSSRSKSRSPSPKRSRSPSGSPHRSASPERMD
UniProt Q8BHL8: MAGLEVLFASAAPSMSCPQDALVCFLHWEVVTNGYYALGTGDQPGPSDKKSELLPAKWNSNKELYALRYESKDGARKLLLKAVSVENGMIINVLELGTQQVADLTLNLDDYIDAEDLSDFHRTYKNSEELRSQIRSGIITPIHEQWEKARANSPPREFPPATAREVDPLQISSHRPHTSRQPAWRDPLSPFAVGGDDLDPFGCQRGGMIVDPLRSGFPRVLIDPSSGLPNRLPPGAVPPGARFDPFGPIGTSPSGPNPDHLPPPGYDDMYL
UniProt Q8CAF4: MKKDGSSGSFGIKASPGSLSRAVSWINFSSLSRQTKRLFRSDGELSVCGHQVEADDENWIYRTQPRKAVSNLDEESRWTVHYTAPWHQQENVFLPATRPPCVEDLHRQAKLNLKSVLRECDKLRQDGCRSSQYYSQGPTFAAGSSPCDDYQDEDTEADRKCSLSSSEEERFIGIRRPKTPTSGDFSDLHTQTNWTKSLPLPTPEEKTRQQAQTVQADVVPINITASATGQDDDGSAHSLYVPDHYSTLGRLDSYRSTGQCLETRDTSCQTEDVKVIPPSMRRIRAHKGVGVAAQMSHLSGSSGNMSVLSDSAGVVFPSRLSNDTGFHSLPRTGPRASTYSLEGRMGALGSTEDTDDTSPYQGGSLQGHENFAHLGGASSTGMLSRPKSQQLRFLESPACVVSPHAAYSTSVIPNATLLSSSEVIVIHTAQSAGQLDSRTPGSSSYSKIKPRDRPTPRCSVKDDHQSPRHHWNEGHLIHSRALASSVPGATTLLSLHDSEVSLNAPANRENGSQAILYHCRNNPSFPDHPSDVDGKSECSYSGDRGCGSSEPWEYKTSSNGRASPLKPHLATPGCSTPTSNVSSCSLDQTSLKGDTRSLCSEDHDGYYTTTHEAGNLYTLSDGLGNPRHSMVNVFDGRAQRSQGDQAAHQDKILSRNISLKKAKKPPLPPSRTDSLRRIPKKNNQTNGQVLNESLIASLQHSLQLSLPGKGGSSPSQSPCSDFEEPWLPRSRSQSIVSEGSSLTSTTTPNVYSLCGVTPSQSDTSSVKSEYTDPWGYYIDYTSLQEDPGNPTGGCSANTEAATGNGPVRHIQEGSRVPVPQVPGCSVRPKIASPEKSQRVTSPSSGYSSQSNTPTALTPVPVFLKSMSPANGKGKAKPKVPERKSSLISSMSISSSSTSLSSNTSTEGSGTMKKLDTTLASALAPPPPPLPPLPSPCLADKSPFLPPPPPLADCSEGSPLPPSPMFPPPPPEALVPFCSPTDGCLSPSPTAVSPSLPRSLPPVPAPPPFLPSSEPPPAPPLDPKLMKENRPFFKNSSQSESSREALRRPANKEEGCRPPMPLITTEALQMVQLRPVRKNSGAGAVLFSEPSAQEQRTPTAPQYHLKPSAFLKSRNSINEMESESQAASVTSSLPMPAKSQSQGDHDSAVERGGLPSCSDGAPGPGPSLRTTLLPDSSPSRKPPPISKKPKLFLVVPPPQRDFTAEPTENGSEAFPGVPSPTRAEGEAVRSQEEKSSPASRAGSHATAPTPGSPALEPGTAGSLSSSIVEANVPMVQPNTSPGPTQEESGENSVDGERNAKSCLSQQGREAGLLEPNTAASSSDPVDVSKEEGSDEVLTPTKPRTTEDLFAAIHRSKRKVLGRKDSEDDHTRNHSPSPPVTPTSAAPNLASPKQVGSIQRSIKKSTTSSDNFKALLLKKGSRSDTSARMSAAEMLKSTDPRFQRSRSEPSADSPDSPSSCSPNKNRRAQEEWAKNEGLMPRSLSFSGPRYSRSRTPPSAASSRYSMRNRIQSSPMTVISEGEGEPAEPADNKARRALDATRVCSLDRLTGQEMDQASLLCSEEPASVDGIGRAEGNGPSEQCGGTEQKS
UniProt Q8CDN6: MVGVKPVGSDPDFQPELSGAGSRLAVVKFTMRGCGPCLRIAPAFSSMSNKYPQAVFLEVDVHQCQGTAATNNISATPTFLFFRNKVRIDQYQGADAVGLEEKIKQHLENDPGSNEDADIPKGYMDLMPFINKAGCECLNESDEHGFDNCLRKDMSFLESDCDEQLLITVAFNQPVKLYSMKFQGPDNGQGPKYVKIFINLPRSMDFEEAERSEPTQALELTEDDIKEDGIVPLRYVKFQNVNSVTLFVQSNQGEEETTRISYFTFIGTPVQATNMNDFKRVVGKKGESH

Compound: CN[C@@H]1C[C@H]2O[C@@](C)([C@@H]1OC)n1c3ccccc3c3c4c(c5c6ccccc6n2c5c31)C(=O)NC4 [staurosporine]
Test: log2 fold change of pooled soluble protein (PISA), ligand vs vehicle (log2 ratio); higher = more thermally stabilized
Details: ligand concentration: 20 uM; assay format: PISA pool 52.9/55.5/58.6 C

UniProt Q8CG50
log2 fold change of pooled soluble protein: 0.173

UniProt Q8BXK8
log2 fold change of pooled soluble protein: -0.186

UniProt Q8CDM8
log2 fold change of pooled soluble protein: 0.155

UniProt Q8BWH0
log2 fold change of pooled soluble protein: -0.0908

UniProt Q8C163
log2 fold change of pooled soluble protein: 0.00676

UniProt Q8BX90
log2 fold change of pooled soluble protein: -0.332

UniProt Q8BVE3
log2 fold change of pooled soluble protein: 0.125

UniProt Q8BK48
log2 fold change of pooled soluble protein: -0.0165

UniProt Q8BWP5
log2 fold change of pooled soluble protein: 0.0722

UniProt Q8CCS6
log2 fold change of pooled soluble protein: -0.0755

UniProt Q8CCN5
log2 fold change of pooled soluble protein: -0.0671

UniProt Q8C9S4
log2 fold change of pooled soluble protein: -0.0389

UniProt Q8C7X2
log2 fold change of pooled soluble protein: -0.113

UniProt Q8BH97
log2 fold change of pooled soluble protein: 0.0659

UniProt Q8C4Y3
log2 fold change of pooled soluble protein: 0.192

UniProt Q8C8T8
log2 fold change of pooled soluble protein: -0.146

UniProt Q8BSN5
log2 fold change of pooled soluble protein: 0.0166

UniProt Q8BJW6
log2 fold change of pooled soluble protein: 0.00974

UniProt Q8BH57
log2 fold change of pooled soluble protein: -0.0966

UniProt Q8CB77
log2 fold change of pooled soluble protein: -0.0693

UniProt Q8BK64
log2 fold change of pooled soluble protein: -0.000719

UniProt Q8BK75
log2 fold change of pooled soluble protein: 0.0111

UniProt Q8BJ64
log2 fold change of pooled soluble protein: -0.135

UniProt Q8BUY9
log2 fold change of pooled soluble protein: -0.0362

UniProt Q8BPT6
log2 fold change of pooled soluble protein: -0.123

UniProt Q8BJ03
log2 fold change of pooled soluble protein: 0.0569

UniProt Q8BTS4
log2 fold change of pooled soluble protein: 0.0858

UniProt Q8BK30
log2 fold change of pooled soluble protein: 0.0944

UniProt Q8BH95
log2 fold change of pooled soluble protein: 0.0512

UniProt Q8BM88
log2 fold change of pooled soluble protein: -0.354

UniProt Q8BQ30
log2 fold change of pooled soluble protein: -0.0362

UniProt Q8BMK4
log2 fold change of pooled soluble protein: -0.0493

UniProt Q8C1B7
log2 fold change of pooled soluble protein: -0.0761

UniProt Q8BLF1
log2 fold change of pooled soluble protein: 0.0904

UniProt Q8CAK1
log2 fold change of pooled soluble protein: -0.143

UniProt Q8BWS5
log2 fold change of pooled soluble protein: 0.0496

UniProt Q8BU14
log2 fold change of pooled soluble protein: -0.153

UniProt Q8BYH7
log2 fold change of pooled soluble protein: 0.432

UniProt Q8BL48
log2 fold change of pooled soluble protein: 0.0316

UniProt Q8BRV5
log2 fold change of pooled soluble protein: 0.14

UniProt Q8C407
log2 fold change of pooled soluble protein: -0.0674

UniProt Q8BTE0
log2 fold change of pooled soluble protein: 0.117

UniProt Q8BIG7
log2 fold change of pooled soluble protein: 0.219

UniProt Q8BTJ4
log2 fold change of pooled soluble protein: 0.204

UniProt Q8BXJ2
log2 fold change of pooled soluble protein: -0.082

UniProt Q8C0Q2
log2 fold change of pooled soluble protein: 0.0774

UniProt Q8CAA7
log2 fold change of pooled soluble protein: 0.0716

UniProt Q8BX80
log2 fold change of pooled soluble protein: 0.113

UniProt Q8CG16
log2 fold change of pooled soluble protein: -0.11

UniProt Q8BGV0
log2 fold change of pooled soluble protein: 0.181

UniProt Q8BH24
log2 fold change of pooled soluble protein: -0.0489

UniProt Q8C052
log2 fold change of pooled soluble protein: -0.343

UniProt Q8BX70
log2 fold change of pooled soluble protein: -0.018

UniProt Q8C129
log2 fold change of pooled soluble protein: 0.0441

UniProt Q8BUY5
log2 fold change of pooled soluble protein: -0.0377

UniProt Q8BYM8
log2 fold change of pooled soluble protein: -0.00402

UniProt Q8BHG1
log2 fold change of pooled soluble protein: 0.122

UniProt Q8BHG9
log2 fold change of pooled soluble protein: -0.159

UniProt Q8CCF0
log2 fold change of pooled soluble protein: -0.376

UniProt Q8BJ05
log2 fold change of pooled soluble protein: -0.057

UniProt Q8CG76
log2 fold change of pooled soluble protein: -0.0622

Q8BPB0;Q921Y0
log2 fold change of pooled soluble protein: -0.122

UniProt Q8BSD5
log2 fold change of pooled soluble protein: 0.0538

UniProt Q8BGS7
log2 fold change of pooled soluble protein: -0.755

UniProt Q8CEI1
log2 fold change of pooled soluble protein: -0.173

UniProt Q8BZF8
log2 fold change of pooled soluble protein: -0.0585

UniProt Q8CCM6
log2 fold change of pooled soluble protein: 0.0694

UniProt Q8BGT7
log2 fold change of pooled soluble protein: -0.0705

UniProt Q8BMP6
log2 fold change of pooled soluble protein: 0.107

UniProt Q8C7E7
log2 fold change of pooled soluble protein: -0.127

UniProt Q8BL97
log2 fold change of pooled soluble protein: -0.126

UniProt Q8BVU5
log2 fold change of pooled soluble protein: 0.00727

UniProt Q8BHJ9
log2 fold change of pooled soluble protein: -0.112

UniProt Q8C1D8
log2 fold change of pooled soluble protein: 0.21

UniProt Q8BMI0
log2 fold change of pooled soluble protein: -0.0683

UniProt Q8BHL8
log2 fold change of pooled soluble protein: 0.0753

UniProt Q8CDJ8
log2 fold change of pooled soluble protein: 0.0788

UniProt Q8C3W1
log2 fold change of pooled soluble protein: 0.089

UniProt Q8BJF9
log2 fold change of pooled soluble protein: -0.0589

UniProt Q8BZB2
log2 fold change of pooled soluble protein: -0.325

UniProt Q8C196
log2 fold change of pooled soluble protein: -0.0551

UniProt Q8C6I2
log2 fold change of pooled soluble protein: -0.000627

UniProt Q8BWM0
log2 fold change of pooled soluble protein: -0.0469

UniProt Q8C1A5
log2 fold change of pooled soluble protein: 0.0627

UniProt Q8C0Z1
log2 fold change of pooled soluble protein: -0.00579

UniProt Q8CAF4
log2 fold change of pooled soluble protein: -0.125

UniProt Q8BTM8
log2 fold change of pooled soluble protein: -0.0878

UniProt Q8BVV7
log2 fold change of pooled soluble protein: 0.718

UniProt Q8BP47
log2 fold change of pooled soluble protein: 0.00621

UniProt Q8BH55
log2 fold change of pooled soluble protein: 0.00209

UniProt Q8CC88
log2 fold change of pooled soluble protein: -0.0289

UniProt Q8BIJ7
log2 fold change of pooled soluble protein: -0.0601

UniProt Q8BH61
log2 fold change of pooled soluble protein: -0.0285

UniProt Q8C1B1
log2 fold change of pooled soluble protein: 0.232

UniProt Q8CES0
log2 fold change of pooled soluble protein: 0.107

UniProt Q8BGY7
log2 fold change of pooled soluble protein: 0.0141

UniProt Q8C5P7
log2 fold change of pooled soluble protein: -0.0424

UniProt Q8CC86
log2 fold change of pooled soluble protein: -0.0233

UniProt Q8BX10
log2 fold change of pooled soluble protein: 0.00445

UniProt Q8BLN6
log2 fold change of pooled soluble protein: -0.194

UniProt Q8BIH0
log2 fold change of pooled soluble protein: -0.0828

UniProt Q8C729
log2 fold change of pooled soluble protein: -0.387

UniProt Q8CAY6
log2 fold change of pooled soluble protein: -0.0361

UniProt Q8C3X8
log2 fold change of pooled soluble protein: 0.0817

UniProt Q8C5H8
log2 fold change of pooled soluble protein: -0.0101

UniProt Q8BKC5
log2 fold change of pooled soluble protein: 0.0255

UniProt Q8CDN6
log2 fold change of pooled soluble protein: -0.0545

UniProt Q8BW96
log2 fold change of pooled soluble protein: 0.42

UniProt Q8BW75
log2 fold change of pooled soluble protein: -0.00449
